Patent US11850220B2 (Augusta University Research Institute, Inc., priority 2020, dated 2023)
Some results were stated once for a whole list of compounds, not compound by compound. Some ranges recur; such a range may be that of the whole group of compounds.

System: hot plate
Assay: hot plate technique (central analgesic)
Details: in vivo

SMILES | potency, central analgesic properties
CC(C)Cc1ccc(C(C)C(=O)N[C@@H](Cc2ccccc2)C(=O)Nc2ccc(O)cc2)cc1 (stereo partly drawn) [Compound 7e, (2S)-N-(4-Hydroxyphenyl)-2-(2-(4-isobutylphenyl)propanamido)-3-phenylpropanamide] | 2.15-2.55 folds of indomethacin
CSCC[C@H](NC(=O)C(C)c1ccc(CC(C)C)cc1)C(=O)Nc1ccc(O)cc1 (stereo partly drawn) [Compound 7i, (2S)-N-(4-Hydroxyphenyl)-2-(2-(4-isobutylphenyl)propanamido)-4-(methylthio)butanamide] | 2.15-2.55 folds of indomethacin
CC(C)Cc1ccc(C(C)C(=O)N[C@@H](CCC(N)=O)C(=O)Nc2ccc(O)cc2)cc1 (stereo partly drawn) [Compound 7j, (2S)—N1-(4-Hydroxyphenyl)-2-(2-(4-isobutylphenyl)propanamido)pentanediamide] | 2.15-2.55 folds of indomethacin
